Laboratory results: PubChem BioAssay AID652259 (Drosophila RNAi Screening Center, 2013)
Purpose: 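Knock-downs that push a Wingless-driven reporter up or down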 (primary screen). System: Drosophila clone 8 imaginal disc epithelial cells. Knock-down reagent: long dsRNA against Drosophila genes. Treatment: pathway stimulated by co-transfected Wingless expression plasmid. Measurement: 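Firefly luciferase from a tcf-site Wingless reporter, measured alongside co-transfected Renilla luciferase that tracks transfection; pathway stimulated by a Wingless plasmid; the firefly-to-Renilla ratio is not deposited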. Reading the numbers: firefly reporter light: higher = more Wg reporter light, before normalisation; Renilla control light: higher = more transfected or surviving cells. Active means: 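a knock-down is a candidate when at least two out of four statistical tests show it departing from its plate mean; one test alone signals a weak candidate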. Meaning of the calls: active = candidate regulator (raises or lowers reporter); inactive = not a candidate.
In all, the deposit lists about 22,000 reagents; below is a random part of those with a known target gene and a result. Over the whole deposit, 233 (1.1%) were called active. 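Light values are raw, unnormalised plate reads; the ratio scores behind the reporter calls were not deposited.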 Unmarked entries are inactive. A plus sign joins genes that one reagent is predicted to hit. Not given: the amount of reagent, the time to read-out, the dose of the treatment.

| target gene | amplicon | firefly reporter light, replicate 1 | firefly reporter light, replicate 2 | Renilla control light, replicate 1 | Renilla control light, replicate 2 |
| --- | --- | --- | --- | --- | --- |
| CG42237 | DRSC19891 | 22180 | – | 12915 | – |
| CG14570 | DRSC11731 | 19907 | – | 5660 | – |
| CG17764 | DRSC18135 | 17829 | – | 5003 | – |
| CG33267 | DRSC09120 | 3221 | – | 1520 | – |
| CG3277 | DRSC00588 | 2003 | 4360 | 1025 | 2035 |
| dysf (dysfusion) | DRSC14529 | 22406 | – | 17569 | – |
| dysf (dysfusion) | DRSC14895 | 22553 | – | 14917 | – |
| dysf (dysfusion) | DRSC14896 | 19872 | – | 17649 | – |
| dysf (dysfusion) | DRSC14897 | 16516 | – | 4760 | – |
| CAH6 (Carbonic anhydrase 6) | DRSC15505 | 10269 | – | 3921 | – |
| asRNA:CR30267 (antisense RNA:CR30267) | DRSC21628 | 6.41e5 | 6.24e5 | 3.18e5 | 2.18e5 |
| CG3793 | DRSC01982 | 8988 | – | 2725 | – |
| fax (failed axon connections) | DRSC11345 | 4689 | – | 1821 | – |
| AGBE (1,4-Alpha-Glucan Branching Enzyme) | DRSC06861 | 8938 | – | 2421 | – |
| CG34234 + Dh44-R2 | DRSC07278 | 9542 | – | 2025 | – |

Ordered by “Renilla control light, replicate 1” (descending): some entries from above
| target gene | amplicon | firefly reporter light, replicate 1 | firefly reporter light, replicate 2 | Renilla control light, replicate 1 | Renilla control light, replicate 2 |
| --- | --- | --- | --- | --- | --- |
| AGBE (1,4-Alpha-Glucan Branching Enzyme) | DRSC06861 | 8938 | – | 2421 | – |
| fax (failed axon connections) | DRSC11345 | 4689 | – | 1821 | – |

Next records follow.
| target gene | amplicon | firefly reporter light, replicate 1 | firefly reporter light, replicate 2 | Renilla control light, replicate 1 | Renilla control light, replicate 2 |
| --- | --- | --- | --- | --- | --- |
| eIF2Bdelta (eukaryotic translation initiation factor 2B subunit delta) | DRSC04058 | 12998 | – | 4192 | – |
| CG3213 | DRSC00576 | 3601 | 10683 | 1456 | 2451 |
| CG30275 | DRSC04163 | 2775 | 7351 | 901 | 3045 |
| CG13516 | DRSC04159 | 2761 | 6824 | 785 | 3244 |
| Su(var)3-3 (Suppressor of variegation 3-3) | DRSC10250 | 4000 | – | 1893 | – |
| Ptx1 | DRSC16804 | 4760 | – | 2922 | – |
| CG15734 | DRSC19701 | 17769 | – | 9801 | – |
| CG9667 | DRSC16535 | 12762 | – | 3005 | – |
| Hr3 (Hormone receptor 3) | DRSC06118 | 3876 | 5786 | 317 | 776 |
| Hr3 (Hormone receptor 3) | DRSC07441 | 10528 | – | 2984 | – |
| E(spl)m2-BFM (Enhancer of split m2, Bearded family member) | DRSC16991 | 12003 | – | 5024 | – |
| Tbcd (Tubulin-binding cofactor D) | DRSC00273 | 7893 | – | 2699 | – |
| CG42366 | DRSC02760 | 2800 | 5528 | 626 | 1408 |
| Nlg2 (Neuroligin 2) | DRSC00957 | 18488 | – | 6944 | – |
| Nlg2 (Neuroligin 2) | DRSC03578 | 2896 | 8464 | 992 | 1139 |
